Laboratory results: PubChem BioAssay AID1508597 (Cure First, 2020)

Screen: 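Survival screen with siRNA in ovarian cancer cells derived from patients, with or without rucaparib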 (primary screen)
Cells: human ovarian carcinoma lines grown from tumours: OCI-P5x (papillary serous) and OCI-C5x (clear cell)
Reagent: siRNA pool against human genes, 1.25 pmol siRNA per well
Duration: 72 h or 96 h, depending on the cell culture
Conditions: rucaparib 20 µM (about IC30) or vehicle, present until read-out
Rucaparib or vehicle: Rucaparib
Cell line: OCI-C5x (clear cell)
Measured: 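ATP luminescence measured at 72 or 96 h according to the culture, then normalised and expressed as percent viability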
Direction: viability, normalised: higher = more viable cells remaining
Active means: 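a well counts as a hit if its normalised viability is under 80 percent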
Meaning of the calls: active = viability under 80%; inactive = viability 80% or more
Shown is a random part of the about 2,100 reagents, in one setting of the screen. 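Calls flag viability under 80% in either arm, not effects specific to rucaparib; the reference for percent is not stated.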 Some reagents were tested in more than one well and are listed for each. Not stated in the record: the 100% reference.

no.	target	PubChem SID	technical replicate	viability, normalised (%)	call
1	ARID5B	SID405527981	1	35.9	active
2	ARID5B	SID405527981	2	22.7	active
3	ARID5B	SID405527981	3	19.6	active
4	HKDC1	SID405528594	1	49.1	active
5	HKDC1	SID405528594	2	53.7	active
6	HKDC1	SID405528594	3	40.4	active
7	IRAK1	SID405527784	1	35.8	active
8	IRAK1	SID405527784	2	41	active
9	IRAK1	SID405527784	3	36.1	active
10	FANCA	SID405528278	1	54.8	active
11	FANCA	SID405528278	2	47.8	active
12	FANCA	SID405528278	3	59.1	active
13	TPP1	SID405528472	1	81.8	inactive
14	TPP1	SID405528472	2	67	active
15	TPP1	SID405528472	3	52.9	active
16	HDAC3	SID405526841	1	54.4	active
17	HDAC3	SID405526841	2	54.5	active
18	HDAC3	SID405526841	3	50.1	active
19	ATAD2	SID405527996	1	71.7	active
20	ATAD2	SID405527996	2	51.8	active
21	ATAD2	SID405527996	3	43	active
22	STK31	SID405526502	1	73.7	active
23	STK31	SID405526502	1	49.2	active
24	STK31	SID405526502	2	68.9	active
25	STK31	SID405526502	2	77.7	active
26	STK31	SID405526502	3	56.9	active
27	STK31	SID405526502	3	63	active

Reformatted: entries from further up
| target | PubChem SID | technical replicate | viability, normalised (%) | call |
| --- | --- | --- | --- | --- |
| STK31 | SID405526502 | 1 | 73.7 | active |
| STK31 | SID405526502 | 1 | 49.2 | active |
| STK31 | SID405526502 | 2 | 68.9 | active |
